Measured values as given in patent publication US7745191B2, “Method of producing heterodimer derivative of protein phosphatase type 2A enzyme” (Tropical Technology Center Ltd., priority 2005, dated 2010).
These are yes or no findings as the source states them, for the method shown. Binding seen in cells or lysates may run through a third protein. Some entries that bind do so weakly or less than the wild type.

Sequences of proteins named here, by UniProt entry; tags and fusion partners are left off. A change or cut given only in a name is not applied to a line headed by its entry. A line that says so, or that is headed by a name, gives the form on record, which may keep a tag or linker.
human PP2A A subunit (PR65α/Aα) carrying FLAG tag (FLAG-PR65α/Aα) (P30153, form named): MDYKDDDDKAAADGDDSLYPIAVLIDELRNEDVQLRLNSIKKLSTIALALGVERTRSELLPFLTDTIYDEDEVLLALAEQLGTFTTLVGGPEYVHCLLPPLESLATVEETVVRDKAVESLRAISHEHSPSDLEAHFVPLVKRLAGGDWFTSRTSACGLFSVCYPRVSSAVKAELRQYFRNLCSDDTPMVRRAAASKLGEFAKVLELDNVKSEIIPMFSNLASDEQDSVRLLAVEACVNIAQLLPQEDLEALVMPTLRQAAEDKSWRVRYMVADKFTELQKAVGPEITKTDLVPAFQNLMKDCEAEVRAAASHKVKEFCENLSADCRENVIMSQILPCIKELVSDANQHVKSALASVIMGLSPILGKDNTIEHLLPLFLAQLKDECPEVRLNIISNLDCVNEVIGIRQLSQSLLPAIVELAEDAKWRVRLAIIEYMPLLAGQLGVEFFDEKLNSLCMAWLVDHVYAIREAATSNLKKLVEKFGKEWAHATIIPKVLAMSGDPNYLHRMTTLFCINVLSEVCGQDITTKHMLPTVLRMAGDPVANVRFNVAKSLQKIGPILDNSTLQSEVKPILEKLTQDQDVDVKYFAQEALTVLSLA
catalytic subunit of human PP2A, β-isoform, carrying a polyhistidine tag (His-PP2Acβ) (P62714, form named): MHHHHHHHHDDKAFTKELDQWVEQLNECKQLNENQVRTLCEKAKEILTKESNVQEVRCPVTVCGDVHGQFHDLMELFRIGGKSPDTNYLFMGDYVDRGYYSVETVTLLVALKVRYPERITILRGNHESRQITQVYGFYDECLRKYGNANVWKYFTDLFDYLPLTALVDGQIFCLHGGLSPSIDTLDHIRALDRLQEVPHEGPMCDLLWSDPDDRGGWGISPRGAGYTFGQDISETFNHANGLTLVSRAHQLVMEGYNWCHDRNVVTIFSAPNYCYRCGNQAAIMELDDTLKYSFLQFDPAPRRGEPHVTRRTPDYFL

Target: human PP2A A subunit (PR65α/Aα) carrying FLAG tag (FLAG-PR65α/Aα) (human) (UniProt P30153)
Assay: co-expression in High Five cells, then two-step co-purification (Ni-NTA agarose, then anti-FLAG M2 affinity gel), confirmed by SDS-PAGE

- binding: binds
Substance: catalytic subunit of human PP2A, β-isoform, carrying a polyhistidine tag (His-PP2Acβ) (from UniProt P62714 2-309) (enzyme)
